Source: patent US20110158907A1, “DIPHENYL-HETEROARYL DERIVATIVES AND THEIR USE FOR BINDING AND IMAGING AMYLOID PLAQUES” (The Trustees of the Univeristy of Pennsylvania, priority 2007, published 2011)
Some results were stated once for a whole list of compounds, not compound by compound. At least one structure is not confirmed: it was looked up by name or label, or the drawing left a doubt.

Assay: Organ distribution of [^125I] or [^18F]tracers in normal mice
Settings: 2 hr after injection

| SMILES | remaining in the brain |
| --- | --- |
| CNc1ccc(-c2cn(-c3ccc([125I])cc3)nn2)cc1 [[^125I]10a] | less than 0.5 % dose/g |
| CN(C)c1ccc(-c2cn(-c3ccc([125I])cc3)nn2)cc1 [[^125I]10b] | less than 0.5 % dose/g |
